In the supplement of paper PMC4862054 one finds normalised response data, which are given here for 9 compounds.

Small differences around the control level are noise.

Holding throughout (experiment): normalised response (% of control), CellTox Green; higher = less cell death (100 = DMSO, 0 = benzethonium chloride kill control)
Common to all, as to conditions: incubation time: 72 h

For one assay, the system named is MDA-MB-231. As for the experimental part:
(§1)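 DSRT, 72 h incubation, CellTox Green / CellTiter-Glo readout. Signal is normalised to DMSO and benzethonium chloride controls. Value is the normalised response at the lowest tested concentration.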

The next assay relates to MDA-MB-453. Here is the method: as §1
Another assay deals with MCF-10A. Here is the method:
as §1

For another assay, the system named is CAL-51. Here is the method:
as §1

A further assay deals with MDA-MB-468. As for the experimental part: as §1
A further assay relates to HCC1599. Here is the method:
as §1

In a further assay the test system is CAL-120. Here is the method:
as §1

A further assay concerns Hs578T. As for the experimental part: as §1
Another assay relates to MFM-223. As for the experimental part:
as §1

For the next assay, the system named is BT-549. As for the experimental part:
as §1

The test system of the next assay is DU-4475. As for the experimental part:
as §1

In a further assay the test system is CAL-85-1. As for the experimental part: as §1
Another assay has as its system BT-474. As for the experimental part: as §1
The test system of a further assay is CAL-148. Here is the method:
as §1

The test system of the next assay is HCC1937. Here is the method:
as §1

A further assay concerns MDA-MB-436. As for the experimental part: as §1
In a further assay the test system is HDQ-P1. Here is the method: as §1
Another assay deals with HCC1143. As for the experimental part: as §1

In the case of `COc1cc2c(cc1O)CC[C@@H]1[C@@H]2CC[C@]2(C)[C@@H](O)CC[C@@H]12` [2-methoxyestradiol] (1 nM), the normalised response amounted to 100% with MDA-MB-231; 101% in the assay on MDA-MB-453; 109% in the assay with MCF-10A; 123% in the assay with CAL-51; 80.6% with MDA-MB-468; 89.7% in the assay on HCC1599. In addition, the normalised response was determined as 102% with CAL-120; 102% in the assay with Hs578T; 91.7% in the assay on MFM-223; 90.4% in the assay on BT-549; 97.5% with DU-4475; 100% in the assay on CAL-85-1. Besides, the values for the normalised response with BT-474 and in the assay with CAL-148 were 100% and 104%, respectively.

Turning to `O=C(Nc1c[nH]nc1-c1nc2ccc(CN3CCOCC3)cc2[nH]1)NC1CC1` [AT9283] (0.1 nM), the normalised response with MDA-MB-453 was 117%; with MCF-10A, 99.5%; in the assay with CAL-51, 113%; in the assay on MDA-MB-468, 125%; with HCC1599, 104%; in the assay with CAL-120, -16.4%. For the same compound, the normalised response amounted to 101% with Hs578T; 101% in the assay with MFM-223; 104% with HCC1937; 100% in the assay with BT-549; 99.1% in the assay on DU-4475; 95.7% with MDA-MB-436. The normalised response in the assay on HDQ-P1 turned out to be 96.8%; in the assay with CAL-85-1, 93.6%; with HCC1143, 112%; with BT-474, 104%; in the assay with CAL-148 it was 86.5%.

`CC(C)(C)c1nc(-c2cccc(NS(=O)(=O)c3c(F)cccc3F)c2F)c(-c2ccnc(N)n2)s1` [Dabrafenib] (0.25 nM): the normalised response in the assay on MDA-MB-231 was 111%; with MDA-MB-453 it was 108%; in the assay with MCF-10A, 102%; in the assay on CAL-51, 106%; with MDA-MB-468, 111%; in the assay on HCC1599, 113%. Further, the normalised response in the assay with CAL-120 is 106%; in the assay with Hs578T it was 113%; in the assay on MFM-223, 106%; with HCC1937 it was 116%; in the assay with BT-549, 100%; with DU-4475, 110%. For the same compound, the normalised response with MDA-MB-436 came to 102%; in the assay on CAL-85-1 it was 99%; in the assay with HCC1143, 103%; in the assay on BT-474 it was 99.9%.

For the compound `O=c1[nH]cc(F)c(=O)[nH]1` [Fluorouracil] (1 nM), the normalised response in the assay with MDA-MB-231 was found to be 115%; with MDA-MB-453 it was 106%; in the assay with MCF-10A, 103%; in the assay on CAL-51 it was 116%; with MDA-MB-468, 56.9%; in the assay on HCC1599, 114%. The normalised response in the assay with CAL-120 was 97.3%; in the assay with Hs578T, 91.3%; in the assay with MFM-223, 88.4%; in the assay with HCC1937, 84.4%; with BT-549 it was 100%; with DU-4475, 108%. Moreover, the normalised response is 102% in the assay on MDA-MB-436; 53.3% in the assay on HDQ-P1; 96.9% in the assay with CAL-85-1; 119% in the assay on HCC1143; 101% in the assay on BT-474.

In the case of `CC[C@H](Nc1ncnc2[nH]cnc12)c1nc2cccc(F)c2c(=O)n1-c1ccccc1` [GS-1101] (1 nM), the normalised response with MDA-MB-453 stood at 102%; with MCF-10A, 92.9%; in the assay on CAL-51, 104%; with MDA-MB-468, 84.9%; in the assay on HCC1599 it was 96.5%; in the assay on CAL-120, 99.8%. Further, the normalised response in the assay with Hs578T worked out at 104%; in the assay on MFM-223 it was 97.6%; in the assay with BT-549, 100%; in the assay on DU-4475, 95.7%; in the assay on MDA-MB-436 it was 83.8%; in the assay with HDQ-P1, 81.1%. Also, the normalised response in the assay with CAL-85-1 turned out to be 105%; in the assay on HCC1143 it was 112%; in the assay on BT-474 it was 92%; in the assay on CAL-148 it was 100%.

Take `Cn1cnc2c(F)c(Nc3ccc(Br)cc3F)c(C(=O)NOCCO)cc21` [MEK-162] (0.1 nM): the normalised response amounted to 84.3% in the assay on MDA-MB-231; 99.6% with MDA-MB-453; 95.6% with MCF-10A; 112% with CAL-51; 122% in the assay on MDA-MB-468; 98% in the assay with HCC1599. The normalised response in the assay on CAL-120 was 99.8%; with Hs578T it was 106%; in the assay on MFM-223 it was 99.4%; in the assay on HCC1937, 108%; with BT-549, 66.8%; in the assay on DU-4475, 101%. The normalised response came to 90.7% in the assay on MDA-MB-436; 99.3% with CAL-85-1; 80.6% in the assay on HCC1143; 100% in the assay with BT-474; 102% with CAL-148.

Turning to `N#CCNC(=O)c1ccc(-c2ccnc(Nc3ccc(N4CCOCC4)cc3)n2)cc1` [Momelotinib] (1 nM), the normalised response with MDA-MB-231 stood at 101%; in the assay with MDA-MB-453 it was 95.1%; in the assay with MCF-10A, 92.8%; in the assay with CAL-51 it was 106%; in the assay with MDA-MB-468, 112%; in the assay with HCC1599, 100%. For the same compound, the normalised response worked out at 101% in the assay with CAL-120; 89.4% with MFM-223; 102% with HCC1937; 83.5% in the assay with BT-549; 97.6% in the assay with DU-4475; 87.4% in the assay with MDA-MB-436. Moreover, the normalised response in the assay on HDQ-P1 was determined as 103%; with CAL-85-1, 101%; in the assay with HCC1143 it was 98.2%; in the assay on BT-474 it was 93.8%; in the assay on CAL-148 it was 101%.

As to `CS(=O)(=O)N1CCN(Cc2cc3nc(-c4cccc5[nH]ncc45)nc(N4CCOCC4)c3s2)CC1` [Pictilisib] (1 nM), the normalised response in the assay with MDA-MB-453 came to 113%; in the assay on MCF-10A, 106%; in the assay on CAL-51, 118%; in the assay on MDA-MB-468 it was 107%; in the assay on HCC1599 it was 86.8%; in the assay with CAL-120, 101%. In addition, the normalised response with Hs578T was 103%; with MFM-223, 100%; in the assay with BT-549, 111%; in the assay with DU-4475 it was 100%; with HDQ-P1 it was 83.8%; with CAL-85-1, 101%. Moreover, the normalised response with HCC1143 is 84.4%; with BT-474, 102%; in the assay on CAL-148, 97.2%.

With `CCCS(=O)(=O)Nc1ccc(F)c(C(=O)c2c[nH]c3ncc(-c4ccc(Cl)cc4)cc23)c1F` [Vemurafenib] (1 nM), the normalised response in the assay on MDA-MB-231 stood at 82.9%; in the assay on MDA-MB-453, 101%; in the assay on MCF-10A, 75.1%; in the assay on CAL-51 it was 99.9%; with MDA-MB-468, 60.1%; with HCC1599 it was 93.7%. For the same compound, the normalised response in the assay on CAL-120 was found to be 96%; in the assay on MFM-223, 98.4%; with HCC1937 it was 103%; in the assay with BT-549, 95%; in the assay with DU-4475, 96.1%; in the assay on HDQ-P1, 94.2%. For the same compound, the normalised response in the assay on CAL-85-1 came to 102%; in the assay on HCC1143, 51.2%; in the assay on BT-474, 92.7%; with CAL-148, 86%.
